From paper PMC8601123 (Nanoscale, 2021)

Experiment: peptide synthesis
Settings: conjugation step

Row | Substance | conjugation yield [% yield]
1 | K16-Cys-SMal-[PEG3-N-(4-((3-trimethylstannyl)amino)quinazolin-6-yl)acrylamide] | 55
2 | K16Cys-S-S-[PEG6-IPQA] | 59
